For three molecules, percent viability results are on record in the supplement of paper PMC8256030.

Counter-ions that a name gives are not always drawn. The list shows a part of the results. Repeats in this data set agree poorly, so a single value says little.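 HEK293T cells were given each compound shortly before transfection with a reporter in which red mCherry is followed by the SARS-CoV-2 frameshift element and then GFP in the −1 frame, so GFP appears only after frameshifting.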

In the experiment the test system is HEK293T. The experiment in a line: percent viability (nuclei count) relative to control; higher = more viable cells. To be noted: 10 µM; 24 h.
In the case of `Oc1ccc(C2CNCCc3c2cc(O)c(O)c3Cl)cc1` (stereo not drawn) [Fenoldopam·HCl], the percent viability is 223%.

For the molecule `C#CCN(C)Cc1ccccc1` [pargyline], the percent viability was 154%.

With `CCCCNc1ccc(C(=O)OCCN(C)C)cc1` [tetracaine], the percent viability amounted to 127%.
